Test results taken from publication PMC8278082.
No constants are given. Whether binding was seen depends on the method and setting. Binding seen in cells or lysates may run through a third protein. Some results given as binding are weak or reduced against the parent protein; the word gives no strength. For some assays here: Sequences can lack the tags named with a protein. Values belong to the binder of their own block, whether it stands above or below them.

Experiments:
GST-Naa10p, P41227 = molecular target: T1, GST-Naa10p, P41227; experiment: pull-down; GST fusion protein on GSH beads incubated with lysates of CAL27 cells transfected with His-IKKα, 4°C, 12 hours; Western blot; only the target purified; conditions: remark: other sources report otherwise
T1 chain: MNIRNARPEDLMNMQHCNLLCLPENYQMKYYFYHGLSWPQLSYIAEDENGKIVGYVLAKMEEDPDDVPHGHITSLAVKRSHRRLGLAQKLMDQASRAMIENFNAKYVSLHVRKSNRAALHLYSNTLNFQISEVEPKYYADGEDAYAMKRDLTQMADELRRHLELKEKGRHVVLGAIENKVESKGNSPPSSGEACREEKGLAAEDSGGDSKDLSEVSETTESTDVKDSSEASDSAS

[1] = molecular target: T2, IκB kinase α (IKKα), endogenous (human (endogenous in CAL27 and SCC15)), O15111; experiment: co-IP; endogenous proteins in CAL27 or SCC15 lysates (weak-potency RIPA buffer), pre-cleared, antibody and protein A/G beads overnight at 4°C, Western blot; results and legend say anti-IKKα antibody, methods say anti-Naa10p or control IgG; conditions: remark: other sources report otherwise
T2 chain: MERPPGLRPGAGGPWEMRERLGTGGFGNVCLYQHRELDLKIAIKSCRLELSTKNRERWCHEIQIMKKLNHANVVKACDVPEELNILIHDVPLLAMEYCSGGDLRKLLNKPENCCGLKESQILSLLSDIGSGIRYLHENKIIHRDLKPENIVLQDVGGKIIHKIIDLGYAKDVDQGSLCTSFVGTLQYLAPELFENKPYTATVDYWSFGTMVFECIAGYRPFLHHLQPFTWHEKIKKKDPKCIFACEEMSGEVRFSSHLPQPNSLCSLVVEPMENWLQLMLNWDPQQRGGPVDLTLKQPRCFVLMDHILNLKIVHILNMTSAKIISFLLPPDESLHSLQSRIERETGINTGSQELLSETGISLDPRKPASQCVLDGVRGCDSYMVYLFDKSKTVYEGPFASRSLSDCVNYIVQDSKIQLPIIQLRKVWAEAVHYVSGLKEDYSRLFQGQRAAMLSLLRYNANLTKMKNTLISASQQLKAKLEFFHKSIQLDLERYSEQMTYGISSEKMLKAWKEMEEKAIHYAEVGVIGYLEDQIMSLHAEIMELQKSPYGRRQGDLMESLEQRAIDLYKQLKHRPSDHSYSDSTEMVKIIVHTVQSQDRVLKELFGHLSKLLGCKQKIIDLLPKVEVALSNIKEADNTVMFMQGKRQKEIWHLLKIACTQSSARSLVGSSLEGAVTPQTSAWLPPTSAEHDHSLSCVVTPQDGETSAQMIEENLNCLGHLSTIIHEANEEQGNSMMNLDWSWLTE

binding (GST-Naa10p, P41227): binds
B1: His-IKKα, O15111 1-745 (protein)
chain: T2 chain

binding [1]: binds
B2: N-α-acetyltransferase 10 protein (Naa10p), endogenous, P41227 1-235 (protein)
chain: T1 chain
